# Results published in the supplement of paper PMC7238544.
# Where a name gives a salt, the structure may show the parent alone. ± gives the standard deviation of the averaged measurements. The list shows a part of the results. The data scatter; read single values as rough. Where a SMILES comes first, the peptide text is derived from it.
# How the values were obtained:
# [1] = system: hAMSC donor 1; experiment: Hoechst total cell count ratio vs vehicle control; higher = more cells (less toxicity)
# [2] = system: hAMSC donor 2; experiment: as above
# [3] = system: hAMSC donor 1; experiment: transgenic luciferase activity (RLU/mg protein) fold change vs vehicle control (ratio); higher = more transgene expression
# [4] = system: hAMSC donor 1; experiment: transfection efficiency (EGFP+ cells / Hoechst count) fold change vs vehicle control (ratio); hAMSC are human adipose-derived mesenchymal stem cells given an EGFP-luciferase plasmid by lipofection; higher = enhanced transfection
# [5] = system: hAMSC donor 2; experiment: as above
# [6] = priming compound concentration 0.2 µM
# [7] = priming compound concentration 1.7 µM
# [8] = priming compound concentration 13 µM
SMILES,"Hoechst total cell count ratio [1, 6]","Hoechst total cell count ratio [1, 7]","Hoechst total cell count ratio [1, 8]","Hoechst total cell count ratio [2, 6]","Hoechst total cell count ratio [2, 7]","Hoechst total cell count ratio [2, 8]","transgenic luciferase activity [3, 8]","transfection efficiency [4, 6]","transfection efficiency [4, 7]","transfection efficiency [4, 8]","transfection efficiency [5, 6]","transfection efficiency [5, 7]","transfection efficiency [5, 8]","transgenic luciferase activity [3, 7]","transgenic luciferase activity [3, 6]"
CS(=O)(=O)c1ccc(-c2cc(Br)sc2-c2ccc(F)cc2)cc1,1.36 ± 0.21,1.16 ± 0.33,1.12 ± 0.089,1.2 ± 0.27,1.26 ± 0.088,1.27 ± 0.098,0.641 ± 0.24,1.02 ± 0.082,0.949 ± 0.31,1.18 ± 0.17,0.891 ± 0.012,0.831 ± 0.12,0.981 ± 0.076,–,–
CC(C)[C@H]1CC[C@H](C(=O)N[C@H](Cc2ccccc2)C(=O)O)CC1 [Nateglinide],1.38 ± 0.2,1.28 ± 0.11,1.2 ± 0.1,1.11 ± 0.58,1.07 ± 0.25,0.865 ± 0.12,–,1.32 ± 0.15,0.821 ± 0.071,1.12 ± 0.28,1.04 ± 0.48,1.37 ± 0.19,1.27 ± 0.055,0.861 ± 0.2,–
CNC(=C[N+](=O)[O-])NCCSCc1csc(CN(C)C)n1 [Nizatidine],1.37 ± 0.088,1.53 ± 0.08,1.33 ± 0.2,1.01 ± 0.21,0.944 ± 0.19,1.12 ± 0.45,0.729 ± 0.11,1.02 ± 0.071,1.09 ± 0.17,0.887 ± 0.17,1.15 ± 0.42,1.58 ± 0.23,0.886 ± 0.21,–,–
CCCSc1ccc2[nH]c(NC(=O)OC)nc2c1 [Albendazole],1.31 ± 0.21,1.09 ± 0.082,1.1 ± 0.025,0.992 ± 0.063,1.09 ± 0.3,0.559 ± 0.1,–,1.2 ± 0.3,1.23 ± 0.28,1.12 ± 0.43,1.29 ± 0.32,1.36 ± 0.075,1.36 ± 0.43,0.567 ± 0.11,–
C=CC1=C(C(=O)O)N2C(=O)[C@@H](NC(=O)/C(=N\O)c3csc(N)n3)[C@H]2SC1 [Cefdinir],1.19 ± 0.19,1.09 ± 0.11,0.931 ± 0.16,1.17 ± 0.2,1.19 ± 0.085,0.891 ± 0.24,0.94 ± 0.33,1.01 ± 0.2,1.26 ± 0.059,1.23 ± 0.16,1.32 ± 0.54,1.28 ± 0.19,1.11 ± 0.14,–,–
COc1ccc2[nH]c([S+]([O-])Cc3ncc(C)c(OC)c3C)nc2c1 (stereo not drawn) [Omeprazole],1.13 ± 0.24,1.23 ± 0.13,1.21 ± 0.015,0.993 ± 0.22,1.13 ± 0.028,1.13 ± 0.083,–,1.06 ± 0.25,1.06 ± 0.22,0.888 ± 0.33,1 ± 0.24,1.01 ± 0.13,0.885 ± 0.11,–,0.375 ± 0.27
CC[C@H]1OC(=O)[C@H](C)[C@@H](O[C@H]2C[C@@](C)(OC)[C@@H](O)[C@H](C)O2)[C@H](C)[C@@H](O[C@@H]2O[C@H](C)C[C@H](N(C)C)[C@H]2O)[C@](C)(OC)C[C@@H](C)C(=O)[C@H](C)[C@@H](O)[C@]1(C)O [Clarithromycin],1.26 ± 0.086,1.27 ± 0.12,1.18 ± 0.13,1.25 ± 0.2,0.874 ± 0.052,0.968 ± 0.2,–,0.998 ± 0.35,1.02 ± 0.27,1.14 ± 0.053,0.829 ± 0.21,0.94 ± 0.069,0.865 ± 0.15,–,0.965 ± 0.38
C#C[C@]1(O)CC[C@H]2[C@@H]3CCC4=CC(=O)CC[C@@H]4[C@H]3CC[C@@]21C [19-Norethindrone],1.21 ± 0.099,1.14 ± 0.075,1.22 ± 0.049,1.11 ± 0.31,1.38 ± 0.027,0.999 ± 0.39,–,1.59 ± 0.3,1.19 ± 0.18,1.41 ± 0.3,1.08 ± 0.12,1.09 ± 0.03,1.43 ± 0.22,0.886 ± 0.17,–
C[C@H](N[C@@H](CCc1ccccc1)C(=O)O)C(=O)N1CCC[C@H]1C(=O)O [Enalaprilat],1.46 ± 0.052,1.54 ± 0.15,0.87 ± 0.072,1.46 ± 0.16,1.23 ± 0.11,1.25 ± 0.27,0.586 ± 0.14,1.19 ± 0.14,0.826 ± 0.14,1.51 ± 0.29,0.676 ± 0.099,0.911 ± 0.22,1.11 ± 0.1,–,–
CO[C@H]1/C=C/O[C@@]2(C)Oc3c(C)c(O)c4c(O)c(c5c(nc6cc(C)ccn65)c4c3C2=O)NC(=O)/C(C)=C\C=C\[C@H](C)[C@H](O)[C@@H](C)[C@@H](O)[C@@H](C)[C@H](OC(C)=O)[C@@H]1C [Rifaximin],1.46 ± 0.14,1.22 ± 0.063,1.25 ± 0.16,1.11 ± 0.081,1.28 ± 0.097,1.09 ± 0.46,1.09 ± 0.59,0.825 ± 0.076,0.891 ± 0.11,0.678 ± 0.14,0.972 ± 0.017,0.927 ± 0.088,0.784 ± 0.26,–,–
Cc1ccc(N(CC2=NCCN2)c2cccc(O)c2)cc1 [Phentolamine mono-hydrochloride],1.33 ± 0.09,1.08 ± 0.26,1.28 ± 0.28,0.856 ± 0.042,1.21 ± 0.05,1.26 ± 0.2,–,1.27 ± 0.62,1.14 ± 0.14,1.09 ± 0.24,1.66 ± 0.82,1.18 ± 0.23,1.23 ± 0.22,0.962 ± 0.093,–
COC(=O)C1=C(C)NC(C)=C(C(=O)OCC(C)C)C1c1ccccc1[N+](=O)[O-] (stereo not drawn) [Nisoldipine],1.27 ± 0.21,1.25 ± 0.1,1.22 ± 0.082,1.59 ± 0.05,1.23 ± 0.021,1.41 ± 0.067,0.779 ± 0.33,0.949 ± 0.17,0.989 ± 0.14,0.906 ± 0.027,0.448 ± 0.019,1.05 ± 0.12,1.22 ± 0.12,–,–
O=C1CC[C@@H](C(=O)N2CSC[C@H]2C(=O)O)N1 [Pidotimod] (HELM PEPTIDE1{[Glp].[O=C(O)[C@@H]1CSCN1[*:1]]}$$$$V2.0),1.31 ± 0.051,1.44 ± 0.12,1.32 ± 0.06,0.817 ± 0.033,0.949 ± 0.053,1.05 ± 0.2,–,0.729 ± 0.037,0.872 ± 0.2,1 ± 0.11,1.01 ± 0.14,1.11 ± 0.16,1.19 ± 0.16,–,0.746 ± 0.13
CCOC(=O)[C@H](CCc1ccccc1)N[C@H]1CCc2ccccc2N(CC(=O)O)C1=O [Benazepril hydrochloride],1.42 ± 0.21,1.33 ± 0.14,1.48 ± 0.16,1.02 ± 0.3,0.813 ± 0.15,0.962 ± 0.26,0.692 ± 0.14,0.901 ± 0.28,1.37 ± 0.7,0.685 ± 0.069,0.904 ± 0.096,1.76 ± 0.24,1.15 ± 0.14,–,–
COc1cc2nc(N3CCN(C(=O)C4CCCO4)CC3)nc(N)c2cc1OC (stereo not drawn) [Terazosin],1.05 ± 0.12,1.27 ± 0.16,1.26 ± 0.041,0.719 ± 0.14,0.955 ± 0.088,0.848 ± 0.019,–,1.66 ± 0.39,0.987 ± 0.052,1.21 ± 0.38,1.68 ± 0.46,1.12 ± 0.066,1.37 ± 0.12,1.2 ± 0.21,–
Nc1nc(N)nc(-c2cc(Cl)ccc2Cl)n1 [Irsogladine maleate],1.16 ± 0.24,1.09 ± 0.14,1.04 ± 0.24,1.86 ± 0.49,1.42 ± 0.24,1.27 ± 0.078,0.677 ± 0.15,1.01 ± 0.23,1.48 ± 0.28,1.3 ± 0.23,0.782 ± 0.22,1.11 ± 0.091,0.835 ± 0.14,–,–
